Assay results as given in BindingDB's records for doi:10.1016/j.ejmech.2008.09.027 (Chulalongkorn University, 2009).

Protein sequences, listed by entry. Tags and fused reporters are not part of them. Lines headed by an entry give the natural chain unless they say otherwise; changes in a name come on top.
UniProt P30291: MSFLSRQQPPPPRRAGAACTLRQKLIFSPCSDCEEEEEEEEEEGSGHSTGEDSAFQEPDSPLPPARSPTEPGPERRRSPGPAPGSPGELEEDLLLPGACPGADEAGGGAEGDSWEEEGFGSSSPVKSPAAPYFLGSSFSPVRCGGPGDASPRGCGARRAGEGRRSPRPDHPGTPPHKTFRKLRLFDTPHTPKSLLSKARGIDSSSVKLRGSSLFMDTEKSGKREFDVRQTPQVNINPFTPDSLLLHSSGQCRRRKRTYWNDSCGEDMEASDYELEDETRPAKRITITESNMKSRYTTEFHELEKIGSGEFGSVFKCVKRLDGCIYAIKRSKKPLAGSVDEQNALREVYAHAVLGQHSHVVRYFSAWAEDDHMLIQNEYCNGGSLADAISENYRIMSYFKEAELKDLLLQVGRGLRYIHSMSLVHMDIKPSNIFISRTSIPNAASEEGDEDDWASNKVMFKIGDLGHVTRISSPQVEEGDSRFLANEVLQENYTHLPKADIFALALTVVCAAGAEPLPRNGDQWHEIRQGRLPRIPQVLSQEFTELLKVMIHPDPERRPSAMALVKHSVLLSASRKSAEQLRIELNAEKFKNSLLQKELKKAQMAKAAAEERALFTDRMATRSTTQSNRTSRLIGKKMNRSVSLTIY

Target: Wee1-like protein kinase (Homo sapiens, UniProt P30291)

`Nc1cccc(-c2cc3[nH]c4ccc(O)cc4c3c3c2C(=O)NC3=O)c1Cl` [4-(3-amino-2-chlorophenyl)-9-hydroxypyrrolo[3,4-c]carbazole-1,3(2H,6H)-dione] showed an IC50 of 12 nM.
